# Data: PubChem BioAssay AID1347076 (National Center for Advancing Translational Sciences (NCATS), 2019)
# In all, about 400,000 compounds went through this assay and about 13,000 (3.2%) were called active. The shares of active, inactive and inconclusive entries below differ from those in the screen. Calls come from the whole dose curve; as a rule, active = well fitted cell-killing curve with a large enough effect; inconclusive = small, poorly fitted or top-dose-only effect, or effect the other way; inactive = flat fitted curve, though single readings scatter. Potencies beside an inconclusive call are fits to weak or partial responses and may not hold up.
# Assay: qHTS assay for MDR1-selective chemotherapeutics: Primary screen using the drug-selected MDR subline cells KB-V1; note: nearly all actives have a fitted effect of over 60% in size
# Conditions: KB-V1 MDR cells viability, CellTiter-Glo, 72 h; activity change, negative = cytotoxicity: at 46.1 µM (top of the series)
# In short: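 Luminescent ATP read-out (CellTiter-Glo, 10 min) measures survival of drug-selected KB-V1 MDR cells after 72 h, 37 degrees C compound exposure. Medium: phenol-red-free DMEM, 10% FBS. Values from fitted concentration-response curves.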
# % is set by controls: 0 for no effect and ±100 for the full control effect; potency is the fitted concentration of half-maximal effect.
SMILES,Potency,"activity change, negative = cytotoxicity"
Cc1cc(C(=O)CCl)c(C)n1CC1COc2ccccc2O1 (centres undefined),"inconclusive: 29.1 µM [cytotoxic, single point]",
Cc1ccc(N/C=C2\CCCCC2=O)c(C)c1,"inconclusive: 20.6 µM [rising, single point]",
CC1CCCCC1NC(=S)NC(=O)c1sc2ccccc2c1Cl (centres undefined),"inconclusive: 5.17 µM [cytotoxic, partial curve]",
CCCc1nc2ccc(Br)cn2c1Cc1ccccc1OC,,inactive: -19.2%
CCc1ccc(-c2nc(-c3ccncc3)no2)cc1,"inconclusive: 23.1 µM [cytotoxic, partial curve, poor fit]",
CCOC(=O)c1sc(=S)n(C)c1NC(=O)c1cccc(Br)c1,,inactive: -25%
O=C(CNC(=O)c1ccccc1F)N/N=C/c1cccs1,,inconclusive: 16.2%
Cc1[nH]c(=O)[nH]c(=O)c1N(C)C,"inconclusive: 20.6 µM [rising, partial curve, poor fit]",
CC(C)(C)OC(=O)N1CCC(c2c(C(=O)NC3CC3)cnn2-c2ccc(Cl)cc2)CC1,"inconclusive: 16.4 µM [rising, single point]",
Cc1cc(C)c2oc(-c3cccc(N)c3)nc2c1,"inconclusive: 18.4 µM [cytotoxic, partial curve]",
COC(=O)c1ccc2c(c1)N(CC(=O)Nc1cccc(Cl)c1C)C(=O)c1ccccc1S2,"inconclusive: 2.31 µM [cytotoxic, full curve]",
O=C(c1cccnc1)N1CCN(S(=O)(=O)c2cccs2)CC1,"inconclusive: 20.6 µM [rising, single point]",
C/C(=N\NC(=O)c1ccc(C)cc1C)c1ccc2c(c1)Nc1ccccc1S2,"inconclusive: 11.6 µM [cytotoxic, partial curve]",
COC(=O)c1ccc(CSc2nnc3nc(C)cc(C)n23)cc1,"inconclusive: 23.1 µM [cytotoxic, single point]",
CC(C)CN(CC(C)C)c1nnc(NC(=O)Cn2c(=O)oc3ccccc32)s1,,inactive: 0.848%
Cc1[nH]c2ccccc2c1CN1CCC(Cc2ccccc2)CC1,active: 18.4 µM,
Cc1cccc(C)c1-n1nnnc1C(c1ccnc2ccccc12)N1CCN(c2ccccc2F)CC1 (centres undefined),active: 16.4 µM,
[O-][n+]1c2cc(C(F)(F)F)ccc2c2n1CCN=C2c1ccc(Cl)cc1,,inactive: 6.52%
CCC(O)(Cc1ccccn1)Cc1ccccn1,"inconclusive: 23.1 µM [rising, single point]",
COc1ccc(C(=O)NCCCc2ccccc2)cc1OC,"inconclusive: 16.4 µM [cytotoxic, single point]",
CC(=O)Oc1ccc(N2C(=O)C3C4C=CC(CC4)C3C2=O)cc1[N+](=O)[O-] (centres undefined),,inactive: -1.41%
O=C(NC1CC1)C1=C[C@H](c2ccc3c(c2)OCO3)C[C@H](OCc2ccc(CO)cc2)O1,,inactive: -8.23%
Cc1ccccc1Nc1nc(N)nc(CN(C)c2ccccc2)n1,"inconclusive: 18.4 µM [cytotoxic, single point]",
Cc1c(C(=O)Nc2cccc(Cl)c2)c2ccccn2c1CCc1ccncc1,"inconclusive: 7.31 µM [cytotoxic, partial curve, poor fit]",
Cc1noc(C)c1C(=O)Nc1ccc(S(=O)(=O)N2CCC(C)CC2)cc1,"inconclusive: 1.03 µM [rising, full curve]",

# Random excerpt: three records from the list, in no set order.
SMILES,Potency,"activity change, negative = cytotoxicity"
O=C(NC1CC1)C1=C[C@H](c2ccc3c(c2)OCO3)C[C@H](OCc2ccc(CO)cc2)O1,,inactive: -8.23%
COc1ccc(C(=O)NCCCc2ccccc2)cc1OC,"inconclusive: 16.4 µM [cytotoxic, single point]",
CCOC(=O)c1sc(=S)n(C)c1NC(=O)c1cccc(Br)c1,,inactive: -25%

# Later entries.

SMILES,Potency,"activity change, negative = cytotoxicity"
COc1ccc(CNC(=O)c2ccc(-c3ccccc3)cc2)cc1,,inactive: -3.4%
CN1C(=S)SC(N(O)C(=O)Nc2ccc(Cl)c(Cl)c2)C1(C)C (centres undefined),active: 18.4 µM,
Cc1ccccc1-c1nc(CS(=O)(=O)CC(=O)Nc2cc(F)ccc2F)c(C)o1,,inactive: 8.01%
O=C1C=CC(=Nc2ccc3c(c2)Cc2ccccc2-3)O1,,inactive: 20.9%
O=C(/C=C/c1ccc2c(c1)OCO2)NCCSCc1c(Cl)cccc1Cl,"inconclusive: 25.9 µM [cytotoxic, partial curve, poor fit]",
CCOc1ccc2c(c1)C(=NNC(=O)c1ccccn1)c1cc(OCC)ccc1-2,,inactive: -19.5%
C=CCN(CC=C)CCCOc1ccc(Br)cc1Cl,,inactive: -7.01%
Cc1ccccc1OCCN1C(=O)C(=O)c2cccc(C)c21,"inconclusive: 32.6 µM [cytotoxic, single point]",
CCCC(=O)Nc1nnc(S(=O)(=O)N(CC(C)C)c2ccccc2)s1,,inactive: -4.72%
CC(CC(=O)O)CC(=O)Nc1ccccc1C(=O)O (centres undefined),"inconclusive: 3.66 µM [cytotoxic, partial curve, poor fit]",
CN(C)c1ccc(C=c2c3ccccc3n3c2cc(-c2ccccc2)[n+]3C)cc1,active: 16.4 µM,
CCOC(=O)N1CCN(C(=O)C2CCN(S(=O)(=O)c3cc(Cl)ccc3Cl)CC2)CC1,"inconclusive: 9.2 µM [cytotoxic, partial curve]",
CCCCCC1=CCC/C1=N\NC(=O)c1ccc2c(c1)OCO2,,inactive: -16.9%
O=C(Cc1ccc(Cl)cc1)Nc1cccc2ncccc12,"inconclusive: 29.1 µM [cytotoxic, single point]",
CN(C)C(=S)SCC(=O)NC(=O)NC(C)(C)C,,inactive: -0.384%
Cc1nc2nc(NC(=O)C(C)(C)C)[nH]n2c(=O)c1Cc1ccccc1,,inactive: 0%
COc1cc(CN2CCN(c3ccc(C)cc3)CC2)cc([N+](=O)[O-])c1O,"inconclusive: 11.6 µM [cytotoxic, partial curve]",
O=C(CNC(=O)c1ccncc1)N/N=C/c1cc(Br)ccc1O,,inactive: -15%
Cc1cc(Cl)ccc1OC(C)C(=O)NCCc1ccc2c(c1)OCCO2 (centres undefined),"inconclusive: 29.1 µM [cytotoxic, single point]",
COc1ccc(NC(=O)Nc2ccc3oc(C)nc3c2)cc1,"inconclusive: 18.4 µM [cytotoxic, single point]",
CCn1c(COc2ccc(C)cc2)nc2ccccc21,"inconclusive: 20.6 µM [cytotoxic, single point]",
O=C1CNC(=S)N1CCCn1ccnc1,"inconclusive: 29.1 µM [rising, single point]",
COC(=O)C1=CN(c2ccc(C)cc2)C(N)=C(C#N)C1c1ccccc1F (centres undefined),"inconclusive: 11.6 µM [cytotoxic, partial curve]",
CCc1ccc(OCC(=O)N/N=C/c2cc([N+](=O)[O-])ccc2N2CCCCCC2)cc1,,inactive: -11%
Fc1cccc(-c2cc3nc4c(c(N5CCOCC5)n3n2)CCCC4)c1,active: 25.9 µM,

SMILES,Potency,"activity change, negative = cytotoxicity"
N#Cc1c(C(F)(F)F)cc(-c2ccc(Cl)cc2)nc1SCC(=O)O,"inconclusive: 10.3 µM [cytotoxic, partial curve, poor fit]",
CC(=O)N1CCN(Cc2nc3cc(NC(=O)c4cccs4)ccc3n2C)CC1,,inactive: -3.66%
COc1ccccc1CC1S/C(=N/N=C/c2ccco2)NC1=O (centres undefined),"inconclusive: 18.4 µM [cytotoxic, single point]",
Cc1ccccc1NC(=O)C1CCN(C(=O)c2cnn(-c3ccccc3)c2-n2cccc2)CC1,,inactive: 17.3%
CC(C)OCCCNC(=O)C(=O)Nc1ccc2nc3n(c(=O)c2c1)CCCCC3,,inactive: 20.8%
CCOc1ccc(NC(=O)c2ccc(N3CC4CC(C3)c3cccc(=O)n3C4)c(NC(=O)CCN3CCOCC3)c2)cc1 (centres undefined),"inconclusive: 14.6 µM [rising, partial curve]",
Fc1cc(F)c2ncc3c(-c4ccccc4)nn(-c4cccc(Cl)c4)c3c2c1,"inconclusive: 0.517 µM [rising, full curve]",
O=C(CSc1ccc2c(c1)OCCO2)NCCc1ccc(Cl)cc1Cl,active: 18.4 µM,
COc1ccccc1C1/C(=C(/O)c2ccccc2)C(=O)C(=O)N1CC(C)C (centres undefined),"inconclusive: 11.6 µM [cytotoxic, partial curve]",
Cc1ccc(S(=O)(=O)N(CC(=O)N(C(C)C)C(C)C)C(=O)N2CCN(C)CC2)cc1,,inactive: -2.13%
Cc1ccc(NC(=O)CCN2CCC(Cc3ccccc3)CC2)cc1,"inconclusive: 14.6 µM [rising, single point]",
COc1ccc2cc(C(=O)C3CCCN(C(=O)CCc4cnn(C)c4)C3)ccc2c1 (centres undefined),,inactive: 0%
COc1ccc(CNC(=O)c2sc3nc4c(c(C(F)(F)F)c3c2N)CCC4)cc1OC,,inactive: -25.8%
COC(=O)c1sc(NC(=O)COc2cccc3ccccc23)nc1C,"inconclusive: 20.6 µM [cytotoxic, single point]",
COc1cc(NC(=O)N(Cc2ccco2)C2CCN(C(C)=O)CC2)cc(OC)c1OC,,inactive: -31.5%
Cc1cccc(-c2nc3nc(C)cc(NCc4ccccc4Cl)n3n2)c1,"inconclusive: 5.17 µM [cytotoxic, partial curve]",
O=C(Nc1cccc([N+](=O)[O-])c1)NC1CCS(=O)(=O)C1 (centres undefined),"inconclusive: 29.1 µM [rising, single point]",
Cc1ccc(NC(=O)N(Cc2cc3cc(C)cc(C)c3[nH]c2=O)CC2COCCO2)cc1 (centres undefined),"inconclusive: 29.1 µM [cytotoxic, single point]",
CCc1noc(C)c1C(=O)N1CCN(c2cccc(C)c2C)CC1,"inconclusive: 18.4 µM [cytotoxic, single point]",
COc1ccc(Cl)cc1-c1nc(SCC(=O)NC(C)(C)C)n[nH]1,"inconclusive: 25.9 µM [cytotoxic, single point]",
O=C(OCC1COC(c2ccccc2)(c2ccccc2)O1)c1ccccc1 (centres undefined),"inconclusive: 10.3 µM [cytotoxic, partial curve]",
COc1ccc(S(=O)(=O)Nc2nc3ccccc3nc2Nc2cccc(C(=O)O)c2)cc1,,inactive: -8.8%
CCCCNc1oc(-c2cccs2)nc1S(=O)(=O)c1ccccc1,active: 14.6 µM,
O=C(CCn1nc(-c2ccccc2)ccc1=O)N1CCN(c2ccccn2)CC1,"inconclusive: 10.3 µM [cytotoxic, partial curve, poor fit]",
